{"sequences": {"note": "By UniProt entry, the sequences of proteins in these tests, tags left out.", "UniProt P53350, whole entry, looked up": "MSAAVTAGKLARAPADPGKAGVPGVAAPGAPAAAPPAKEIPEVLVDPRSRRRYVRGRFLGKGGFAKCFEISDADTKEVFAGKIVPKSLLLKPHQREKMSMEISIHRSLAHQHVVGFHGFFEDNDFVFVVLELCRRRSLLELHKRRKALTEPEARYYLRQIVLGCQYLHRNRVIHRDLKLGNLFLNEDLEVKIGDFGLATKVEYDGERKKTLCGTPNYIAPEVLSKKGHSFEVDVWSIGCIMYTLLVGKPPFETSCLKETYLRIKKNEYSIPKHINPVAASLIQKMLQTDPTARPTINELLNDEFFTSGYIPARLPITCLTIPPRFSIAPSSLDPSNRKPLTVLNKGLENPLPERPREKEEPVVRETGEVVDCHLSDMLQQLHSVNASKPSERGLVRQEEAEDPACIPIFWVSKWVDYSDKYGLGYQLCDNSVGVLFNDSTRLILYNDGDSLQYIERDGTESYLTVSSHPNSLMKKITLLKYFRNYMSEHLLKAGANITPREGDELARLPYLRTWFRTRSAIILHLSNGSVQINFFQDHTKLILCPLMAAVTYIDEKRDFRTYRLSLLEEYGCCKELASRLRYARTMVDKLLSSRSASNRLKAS"}, "source": "PubChem BioAssay AID720504", "about": "(National Center for Advancing Translational Sciences (NCATS), 2013)", "note": "The whole screen tested about 360,000 compounds, of which about 10,000 (2.8%) were called active. The shares of active, inactive and inconclusive entries below differ from those in the screen. Calls follow the shape of the dose curve; as a rule, active = well fitted inhibition curve with a large enough effect; inconclusive = small, poorly fitted or top-dose-only effect; inactive = flat fitted curve, though single readings scatter. Potencies of inconclusive entries are doubtful fits and often do not repeat. % is scaled to controls: 0 for no effect and ±100 for the full control effect; potency is read from the fitted curve at half-maximal effect."}
{"target": "Serine/threonine-protein kinase PLK1 (Homo sapiens) (UniProt P53350)", "assay": "qHTS for Inhibitors of PLK1-PDB (polo-like kinase 1 - polo-box domain): Primary Screen; also: nearly all actives have a fitted effect of over 65% in size; as to max response, negative = inhibition: series mostly up to about 57 µM", "details": "Plk1 PBD binding of FITC phosphopeptide, fluorescence polarization"}
{"smiles": "Cc1noc(NS(=O)(=O)c2ccc(NC(=O)CSc3nc4c(cc3C#N)CCCC4)cc2)c1C", "Potency": "inconclusive: 29.9 µM [inhibitor, single point]"}
{"smiles": "CCCCOC(=O)c1ccc(NC(=O)CSC2=Nc3ccccc3C3CC=NN23)cc1", "note": "(stereo unspecified)", "max response, negative = inhibition": "inactive: -11.7%"}
{"smiles": "CNc1nc(-c2ccccc2)[n+](-c2ccc(C)cc2)s1", "Potency": "active: 1.5 µM"}
{"smiles": "CCC(Oc1nc2ccccc2nc1-c1ccccc1NC(C)=O)C(=O)c1ccccc1", "note": "(stereo unspecified)", "max response, negative = inhibition": "inactive: -2.68%"}
{"smiles": "CCN1CCN(C2CCCCC2NS(=O)(=O)c2ccc(Cl)cc2)CC1", "note": "(stereo unspecified)", "Potency": "active: 26.7 µM"}
{"smiles": "CCCC(=O)Nc1sc(C)c(C)c1C#N", "Potency": "active: 21.2 µM"}
{"smiles": "Cc1ccc(-c2cc3cccc[n+]3cc2-c2ccc(C)cc2)cc1", "Potency": "inconclusive: 29.9 µM [inhibitor, partial curve]"}
{"smiles": "Cc1ccc(/C=N/n2c(COc3ccccc3)n[nH]c2=S)o1", "Potency": "inconclusive: 15 µM [inhibitor, partial curve]"}
{"smiles": "O=C(O)c1ccc(Cn2cc(/C=C\\[N+](=O)[O-])c3ccccc32)o1", "Potency": "active: 26.7 µM"}
{"smiles": "Cn1/c(=N/N=C/c2ccccn2)sc2ccccc21", "max response, negative = inhibition": "inactive: -28.3%"}
{"smiles": "CS(=O)(=O)Oc1ccc(Br)cc1/C=C1/N=C(c2ccco2)OC1=O", "Potency": "inconclusive: 21.2 µM [inhibitor, single point]"}
{"smiles": "O=C(N[C@@H](Cc1ccccc1)C(=O)Nc1ccc(F)cc1)C1CCNCC1", "Potency": "inconclusive: 23.8 µM [inhibitor, single point]"}
{"smiles": "O=C(Oc1ccc(C(=S)N2CCOCC2)cc1)c1cccc(Cl)c1", "Potency": "inconclusive: 23.8 µM [inhibitor, single point]"}
{"smiles": "COc1ccc(S(=O)(=O)N(C)C)cc1NC(=O)[C@H](Cc1ccccc1)N1C(=O)c2ccccc2C1=O", "max response, negative = inhibition": "inactive: -2.38%"}
{"smiles": "COCc1nnc(NC(=O)c2cccc(NC(=O)c3ccccc3)c2)s1", "Potency": "inconclusive: 37.7 µM [inhibitor, single point]"}
{"smiles": "CCCc1cc(=O)[nH]c(SCC(=O)N(C)CC(=O)Nc2ccccc2CC)n1", "Potency": "active: 26.7 µM"}
{"smiles": "CCN(CC)C(=O)CSc1nc2c(sc(=S)n2-c2ccccc2)c(=O)[nH]1", "max response, negative = inhibition": "inactive: -0.423%"}
{"smiles": "COc1ccc(-c2oc3cc(OC)c(O)c(OC)c3c(=O)c2OC)cc1O", "max response, negative = inhibition": "inactive: 7.21%"}
{"smiles": "Cc1ccc(NN2C(=O)C=C(c3ccccc3)C2=O)cc1", "Potency": "active: 8.44 µM"}
{"smiles": "CC(C)OC(=O)c1ccc(NC(=O)C2C3CC4OC(=O)C2C4C3)cc1", "note": "(stereo unspecified)", "Potency": "inconclusive: 29.9 µM [inhibitor, single point]"}
{"smiles": "CCN(Cc1ccncc1)Cc1cn[nH]c1-c1ccc(OC)cc1F", "max response, negative = inhibition": "inactive: -0.116%"}
